Experimental data: article PMC4186439, “Characterization of a novel brain barrier ex vivo insect-based P-glycoprotein screening model” (Pharmacology Research & Perspectives, 2014)

Tested on: locust brain barrier
Conditions: exposure 3, 10, 30 and 100 μmol/L for 5 min; Fig. 3; n = 3

Concentration-dependent ex vivo brain uptake profile: linear increase
SMILES: CC(C)NCC(O)COc1ccc(CC(N)=O)cc1 (stereo not shown) [Atenolol, atenolol]
